From paper PMC11990703
No constants are given. Whether binding was seen depends on the method and setting. In cells and extracts the contact can be indirect. Here binding means that the protein was enriched with, or labelled near, the bait; the list need not be complete. Blank lines part the entries; values can stand above or below the binder they belong to.

Target: OsCAF1A-GFP (rice (Oryza sativa))
Assay: affinity purification with mass spectrometry; GFP-Trap_A beads on total protein of transgenic rice embryo calli expressing 2X35S: OsCAF1A-GFP (2X35S: GFP as control); lysis buffer 10 mM Tris-HCl pH 7.5, 150 mM NaCl, 0.5 mM EDTA, 0.5% NP-40, 1 mM PMSF; 4 °C for 2 h; three washes; LC-MS/MS

- binding: binds
B1: 60S acidic ribosomal protein P0-like (protein, UniProt P41095 1-319)
chain: MAIKRTKAEKKVAYDKKLCQLLDEYTKVLIAVADNVGSNQLQEIRKGLRGDSIVLMGKNTLIRRCIKVHADNTGNKEFLELMPLLVGNVGLIFTKGDLKEVREEVAKYKVGAPARVGLVAPVDVVVPPGNTGLDPSQTSFFQVLNIPTKINKGTVEIITPVELIKKGDKVGSSESALLAKLGIRPFSYGLVITNVYDSGSVFSPEVLDLTEDDLMEKFASGVSMVASVSLAISYPTIAAAPHMFLNGYKNVLAVAVETEYSYPHADKIKEYLKDPSKFAVAAPVAADSGAAAPSAAKEEEKKEEPEEESDGDLGMSLFD

- binding: binds
B2: DEAD-box ATP-dependent RNA helicase 8-like (protein, UniProt Q6H7S2 1-508)
chain: MDPRARYPPGIGNGRGGNPNYYNRGPPLQQQHNHHQQQQTSAPHHQQYVQRQPQQHHHHNHHQQHQQQQQQWLRRNQIAREAAGTDRNSEPKAVAQSPAVDGIDSSSQDWKAQLKLPPQDTRYRTEDVTATKGNEFEDYFLKRELLMGIYEKGFERPSPIQEESIPIALTGSDILARAKNGTGKTAAFCIPALEKIDQEKNAIQVVILVPTRELALQTSQVCKELGKHLKIQVMVTTGGTSLKDDIIRLYQPVHLLVGTPGRILDLTKKGICILKDCSMLIMDEADKLLSPEFQPSVEQLIRYLPASRQILMFSATFPVTVKEFKDKYLPKPYVINLMDELTLKGITQFYAFVEERQKVHCLNTLFSKLQINQSIIFCNSVNRVELLAKKITELGYSCFYIHAKMLQDHRNRVFHDFRNGACRNLVCTDLFTRGIDIQAVNVVINFDFPKTAETYLHRVGRSGRFGHLGLAVNLITYEDRFNLYRIEQELGTEIKPIPPQIDQAIYCQ
